# Some of the results follow. Further columns of the screen follow, without active or inactive calls. The list favours compounds with an active or inconclusive main result. The note in brackets gives the kind of curve behind each potency; many fits are weak.
# Assay: qHTS Assay for Modulators of Lamin A Splicing
# Conditions: HeLa LMNA splicing GFP/RFP minigene ratio, 48 h
# Summary of the method: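 S3 HeLa stable clones carrying a lamin A-EGFP splicing minigene plus DsRed2 were seeded at 600 cells/well in Opti-MEM with 2% FBS, pin-dosed and incubated 48 h at 37°C. Acumen cytometry (488 nm) gave the GFP/RFP total-intensity ratio.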
# [1] = measured here: RFP viability control channel
# [2] = measured here: GFP splicing reporter channel
SMILES,AC50 [1],AC50 [2]
O=C(CN1C(=O)C2C3C=CC(C3)C2C1=O)NCc1ccccc1 (stereo unspecified),"0.891 µM [falling, full curve, poor fit]",–
c1ccc(CN2CCN(c3nc(-c4ccccc4)nc4ccccc34)CC2)cc1,"31.6 µM [rising, single point]",–
Cn1c(C(=O)NCC2CCCO2)cc2oc3ccccc3c21 (stereo unspecified),"35.5 µM [rising, single point]","35.5 µM [rising, single point]"
CCN1C/C(=C/c2ccc(OC)c(O)c2)C(=O)/C(=C/c2ccc(OC)c(O)c2)C1,"2.82 µM [falling, partial curve]",–
CSc1ccc(C2c3[nH]c4ccccc4c3CCN2C(=O)c2cc(C)n(C)n2)cc1 (stereo unspecified),"12.6 µM [rising, partial curve]","35.5 µM [rising, single point]"
O=C(/C=C/c1ccco1)N1CCN(c2ccccc2)CC1,–,"3.16 µM [rising, partial curve, poor fit]"
O=c1c2c(nc3cc(-c4cccc(Cl)c4)[nH]n13)CCCC2,"31.6 µM [rising, single point]",–
CCOc1cc(/C=C/c2ccc3cccc([N+](=O)[O-])c3n2)ccc1O,"14.1 µM [rising, partial curve]",–
CCCCN(CC)CCNC(=O)c1cc2c(C)nc3ccccc3c2o1,"31.6 µM [rising, single point]","31.6 µM [rising, single point]"
O=C(CSc1nccn1-c1ccccc1)Nc1ccc2c(c1)OCO2,"14.1 µM [rising, partial curve]","10 µM [rising, partial curve]"
COc1ccc(N2CCN(C(=O)CSc3nnc(-c4cc5ccccc5cc4O)n3C)CC2)cc1,"11.2 µM [rising, partial curve]","1.78 µM [rising, full curve, poor fit]"
O=C(Nc1ccccc1)c1cc2ccccc2c(=O)s1,"11.2 µM [rising, partial curve]",–
COc1ccc(/C=C/C(=O)N2CCCc3ccccc32)cc1,"11.2 µM [rising, partial curve, poor fit]",–
O=S(=O)(CCN1CCN(C(c2ccccc2)c2ccccc2)CC1)C(F)(F)F,–,"12.6 µM [falling, single point]"
CCC(=O)O[C@@H]1[C@H](C)O[C@H](O[C@H]2[C@@H](N(C)C)[C@H](O)[C@@H](O[C@@H]3[C@@H](CC=O)C[C@@H](C)[C@@H](O)/C=C\C=C/C[C@@H](C)OC(=O)C[C@@H](OC(=O)CC)[C@H]3OC)O[C@H]2C)C[C@]1(C)O,–,"0.224 µM [falling, full curve]"
Cc1cccc(N2CCN(c3ccc(N4C(=O)CCCC4=O)cc3[N+](=O)[O-])CC2C)c1 (stereo unspecified),"35.5 µM [rising, single point]","6.31 µM [rising, single point]"
Cc1ccc2sc(N(CCCN(C)C)C(=O)c3ccc(S(=O)(=O)N(C)C)cc3)nc2c1C,"0.891 µM [rising, single point]",–
Cc1ccc(CSC(Nc2ccc(F)cc2)=C(C#N)C#N)cc1,"15.8 µM [rising, partial curve]","14.1 µM [rising, single point]"

# One compound at a time, as listed above.
# `O=C(CSc1nccn1-c1ccccc1)Nc1ccc2c(c1)OCO2` is listed with AC50 [1]: 14.1 µM [rising, partial curve]; AC50 [2]: 10 µM [rising, partial curve]
# `CSc1ccc(C2c3[nH]c4ccccc4c3CCN2C(=O)c2cc(C)n(C)n2)cc1` (stereo unspecified) is listed with AC50 [1]: 12.6 µM [rising, partial curve]; AC50 [2]: 35.5 µM [rising, single point]

# More records follow:

SMILES,AC50 [1],AC50 [2]
CCCNC(=O)OC[C@H]1O[C@H](CCO/N=C/C[C@@H]2C=C[C@H](OC(C)=O)[C@@H](COC(C)=O)O2)C=C[C@@H]1Oc1ccc(OC)cc1,"31.6 µM [rising, single point]",–
CCn1cc(/C=C/C(=O)Nc2c(C)nn(Cc3ccccc3)c2C)cn1,"8.91 µM [rising, partial curve]","7.08 µM [rising, full curve]"
CCOc1ccc(OCC)c(NS(=O)(=O)c2c(C)[nH]c(=O)[nH]c2=O)c1,"1.58 µM [falling, partial curve, poor fit]",–
Cc1ccc(C)c(NC(=O)CSc2c(C)cnc3c2c(=O)n(C)c(=O)n3C)c1,"31.6 µM [rising, single point]","35.5 µM [rising, single point]"
N[C@@H](Cc1c[nH]c2ccc(O)cc12)C(=O)O,"0.0398 µM [falling, full curve, poor fit]",–
Cc1[nH]c2ccccc2c1C(=O)COC(=O)c1c(-c2ccccc2)noc1C,"35.5 µM [rising, single point]",–
CN(C)c1ncc2nc(-c3ccccc3)c(=O)n(CCc3ccccc3)c2n1,–,"0.00891 µM [falling, full curve, poor fit]"
N#CC1=C(N)SC(N)=C(C#N)C1c1ccc([N+](=O)[O-])cc1,"35.5 µM [rising, single point]",–
COc1cc(-c2nnc(COc3ccc4cc(Br)ccc4c3)o2)cc(OC)c1OC,"4.47 µM [rising, full curve, poor fit]","4.47 µM [rising, full curve, poor fit]"
CCCCNC(=O)c1onc(CSc2ccccc2CC)c1C(=O)O,–,"0.0355 µM [falling, partial curve]"
CCCC1=NN(c2ccc([N+](=O)[O-])cc2)C(=O)/C1=C/N(C)C,–,"31.6 µM [rising, single point]"
CC(=O)OC1COC(N2CCc3cc(Br)c([N+](=O)[O-])cc32)C(OC(C)=O)C1OC(C)=O (stereo unspecified),"35.5 µM [rising, single point]",–
CCc1nc(NCC2CCCO2)c2oc3ccccc3c2n1 (stereo unspecified),–,"17.8 µM [rising, single point]"
Cc1ccc(-c2csc(NC(=O)Cc3ccc(F)cc3)n2)o1,"35.5 µM [falling, single point]",–
NNc1nc(NCc2ccccc2)nc(N2CCOCC2)n1,"7.08 µM [rising, single point]",–
CC(C)(C)c1ncc(S(=O)(=O)c2ccc(C(F)(F)F)cn2)c(N)n1,–,"0.00447 µM [rising, full curve, poor fit]"
O=C(NC(NC(=S)Nc1cc(Cl)ccc1Cl)C(Cl)(Cl)Cl)c1ccco1 (stereo unspecified),"35.5 µM [falling, single point]","31.6 µM [falling, single point]"

# From PubChem BioAssay AID1487 (National Center for Advancing Translational Sciences (NCATS), 2009)
